Reference: PubChem BioAssay AID1159578 (Peter MacCallum Cancer Centre, 2015)

- Purpose: 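siRNA pools altering how lymphatic endothelial cells close a scratch wound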 (primary screen)
- Cells: human lymphatic endothelial cells
- Reagents: siRNA pool against human genes, 40 nM
- Duration: 48 h after transfection
- Measurement: 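High-content imaging of dye-stained cells in a scratch assay measures filled wound area and nuclei per well; duplicate means given as ratio to mock and robust z-score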
- Scale: migration robust z-score: higher = faster migration into the scratch; migration relative to mock: higher = more scratch area covered than mock; nuclei per well: higher = more cells in the well
- Rule for the call: 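Pools averaging fewer than 3300 nuclei are never called; remaining pools count as changed when migration robust z lies outside -2 to 2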
- Meaning of the calls: active = migration changed; inactive = no migration change, or too few cells
This is one part, drawn at random, of about 18,000 deposited reagents. Of all reagents, about 1,030 (5.7%) were called active. 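Inactive calls also include pools with fewer than 3300 nuclei, whose migration was not assessed.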 The raw values are shown without normalisation. A number with no mark means an inactive call. No sequences are given here.

gene knocked down | migration robust z-score | migration class with cell-count check | migration relative to mock | nuclei per well, duplicate mean
MZT2B | -0.12 | migration z between -2 and 2; enough cells | 0.86 | 6131
LCN8 | -0.16 | migration z between -2 and 2; enough cells | 0.84 | 4404
ASGR1 | 0.55 | migration z between -2 and 2; enough cells | 0.91 | 4786
ANO9 | 0.86 | migration z between -2 and 2; enough cells | 1.11 | 6442
OTOA | 0.4 | migration z between -2 and 2; enough cells | 0.99 | 5615
PDE4A | 0.6 | migration z between -2 and 2; enough cells | 0.92 | 5072
THBS1 | -0.74 | migration z between -2 and 2; enough cells | 0.69 | 6468
ZP1 | 0.94 | migration z between -2 and 2; enough cells | 1.12 | 5273
CSNK1A1 | 0.62 | migration z between -2 and 2; enough cells | 0.92 | 4611
ATRX | 0.54 | migration z between -2 and 2; enough cells | 0.91 | 5350
BTG2 | 0.68 | migration z between -2 and 2; enough cells | 0.94 | 5230
EEF1A2 | -0.21 | migration z between -2 and 2; enough cells | 0.76 | 4976
FARP1 | -2.35 (active) | migration z below -2; enough cells | 0.28 | 5631
TAF4B | -0.26 | migration z between -2 and 2; enough cells | 0.76 | 5397
SEC24D | 0.59 | migration z between -2 and 2; enough cells | 1.03 | 5123
ERBB2 | -0.03 | migration z between -2 and 2; enough cells | 0.8 | 5532
ALG10B | 0.33 | migration z between -2 and 2; enough cells | 0.97 | 6476
ZNF22-AS1 | 0.71 | migration z between -2 and 2; enough cells | 1.06 | 4728
TOM1L1 | -0.12 | migration z between -2 and 2; enough cells | 0.85 | 5548
TOB2 | -0.45 | migration z between -2 and 2; enough cells | 0.76 | 5716
BPY2B | 0.42 | migration z between -2 and 2; enough cells | 1 | 6200
JAKMIP1 | -0.02 | migration z between -2 and 2; enough cells | 0.88 | 5292
WNK2 | 0.88 | migration z between -2 and 2; enough cells | 0.98 | 4336
UBE2O | -2.75 (active) | migration z below -2; enough cells | 0.27 | 4939
UPK3A | -2.82 (active) | migration z below -2; enough cells | 0.16 | 5228
SPRY1 | -0.04 | migration z between -2 and 2; enough cells | 0.87 | 5496
PAPSS1 | 0.13 | migration z between -2 and 2; enough cells | 0.83 | 4679
ARHGAP26 | 0.82 | migration z between -2 and 2; enough cells | 1.1 | 5129
OR2T2 | -4.24 | under 3300 nuclei; migration not judged | -0.22 | 1904
TOPBP1 | -1.66 | migration z between -2 and 2; enough cells | 0.48 | 4084
CDK4 | -4.98 | under 3300 nuclei; migration not judged | -0.16 | 3188
EXOSC5 | 1.38 | migration z between -2 and 2; enough cells | 1.07 | 7422
RNASE10 | -0.3 | migration z between -2 and 2; enough cells | 0.81 | 6708
ATP2A1 | -0.6 | migration z between -2 and 2; enough cells | 0.69 | 5479
AKAP8L | 0.9 | migration z between -2 and 2; enough cells | 0.98 | 5694
COG6 | 0.8 | migration z between -2 and 2; enough cells | 1.09 | 5695
ZNF626 | 0.84 | migration z between -2 and 2; enough cells | 1.09 | 6002
NSUN5P2 | 2.07 (active) | migration z above 2; enough cells | 1.42 | 5912
NHLH1 | -1.68 | migration z between -2 and 2; enough cells | 0.45 | 5514
EIF2B1 | -0.49 | migration z between -2 and 2; enough cells | 0.71 | 6008
DCP2 | 0.73 | migration z between -2 and 2; enough cells | 1.08 | 6562
TMEM144 | -0.11 | migration z between -2 and 2; enough cells | 0.86 | 5782
AK7 | 0.8 | migration z between -2 and 2; enough cells | 0.96 | 7624
LIF | -2.7 | under 3300 nuclei; migration not judged | 0.29 | 3283
PANX2 | -1.4 | migration z between -2 and 2; enough cells | 0.52 | 4344
ACAT2 | -0.84 | migration z between -2 and 2; enough cells | 0.64 | 5702
MAS1L | 0.96 | migration z between -2 and 2; enough cells | 0.99 | 7348
GMFG | -1.47 | migration z between -2 and 2; enough cells | 0.5 | 5249
CLDN16 | 1.12 | migration z between -2 and 2; enough cells | 1.02 | 5472
EML4 | -0.18 | migration z between -2 and 2; enough cells | 0.84 | 6018
ARID5B | 0 | migration z between -2 and 2; enough cells | 0.8 | 6662
OR4C46 | 0.26 | migration z between -2 and 2; enough cells | 0.96 | 5296
SPEM1 | 0.9 | migration z between -2 and 2; enough cells | 1.12 | 6788
MCF2L2 | 0.88 | migration z between -2 and 2; enough cells | 0.98 | 6197
TRIM36 | 1.01 | migration z between -2 and 2; enough cells | 1 | 6397
OTUD7B | -0.08 | migration z between -2 and 2; enough cells | 0.79 | 4914
CDK2AP2 | 0.89 | migration z between -2 and 2; enough cells | 1.12 | 4834

3 consecutive reagents from above:
gene knocked down | migration robust z-score | migration class with cell-count check | migration relative to mock | nuclei per well, duplicate mean
THBS1 | -0.74 | migration z between -2 and 2; enough cells | 0.69 | 6468
ZP1 | 0.94 | migration z between -2 and 2; enough cells | 1.12 | 5273
CSNK1A1 | 0.62 | migration z between -2 and 2; enough cells | 0.92 | 4611
